Here are results for 3 molecules from patent US7300655.

Changes are numbered by the printed parent chain. Results are given in words; binding and its absence hold for the method and conditions named. Some results given as binding are weak or reduced against the parent protein; the word gives no strength.

In test [1] the target is T1, alpha-fetoprotein (UniProt P02771).
T1 sequence (looked up): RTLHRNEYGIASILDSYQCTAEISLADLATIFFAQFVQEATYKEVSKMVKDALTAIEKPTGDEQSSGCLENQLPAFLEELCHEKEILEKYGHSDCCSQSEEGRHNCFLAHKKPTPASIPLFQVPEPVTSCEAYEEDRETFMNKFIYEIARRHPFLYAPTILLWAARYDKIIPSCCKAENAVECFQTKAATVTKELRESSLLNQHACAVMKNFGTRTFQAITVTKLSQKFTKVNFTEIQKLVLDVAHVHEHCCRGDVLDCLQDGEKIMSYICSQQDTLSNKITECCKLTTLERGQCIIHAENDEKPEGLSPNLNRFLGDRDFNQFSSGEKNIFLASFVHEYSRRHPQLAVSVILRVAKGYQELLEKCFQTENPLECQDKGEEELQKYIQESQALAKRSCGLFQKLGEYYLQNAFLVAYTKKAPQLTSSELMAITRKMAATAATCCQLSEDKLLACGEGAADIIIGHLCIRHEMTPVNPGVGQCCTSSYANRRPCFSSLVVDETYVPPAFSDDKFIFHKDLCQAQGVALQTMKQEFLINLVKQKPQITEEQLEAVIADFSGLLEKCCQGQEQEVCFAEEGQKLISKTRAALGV
As to the kind of experiment: competition ELISA on AFP-coated wells; competitor biotinylated murine Immu31. A general note: An ELISA detects its analyte on a solid surface through an enzyme-linked reagent.

The target in test [2] is T1, alpha-fetoprotein. As to the kind of experiment: competition ELISA on AFP-coated wells; competitor biotinylated murine Immu31 (FIG. 6 chart A).
Test [3] addresses T1, alpha-fetoprotein. As to the kind of experiment: competition ELISA on AFP-coated wells; competitor biotinylated murine Immu31 (FIG. 3 legend).

B1: hImmu31T69 (antibody, human IgG1, V domains shown)
VH: QVQLQQSGAEVKKPGSSVKVSCKASGYAFTSYVIHWVRQAPGQGLYWIGYIHPYNGGTKYNEKFKGKATITADESTNTAYMELSSLRSEDTAFYFCARSGGGDPFAYWGQGSLVTVSS
VL: DIQLTQSPSSLSASVGDRVTITCKASQDINKYIGWYQQKPGKAPKLLMHYTSALLPGIPSRFSGSGSGTDYTFTISSLQPEDIATYYCLQYDDLWTFGGGTKLQIKR
For the molecule B1, the binding result in the test with alpha-fetoprotein [1] and with alpha-fetoprotein [2] was “binds” each time.

B2: murine Immu31 (antibody, V domains shown)
VH: VKLQESGPELVKPGASVKMSCKASGYAFTSYVIHWVRQKPGQGLYWIGYIHPYNGGTKYNEKFKGKATLTSDKSSSTTYMELSSLTSEDSAVYYCARSGGGDPFAYWGQGTLVTVSA
VL: DIQLTQSPSSLSASLGGKVTITCKASQDINKYIGWYQHKPGKGPRLLMHYTSALLPGIPSRFSGSGSGRDYSFSISNLEPEDIATYYCLQYDDLWTFGGGTKLEMKR
In the case of B2, the binding entry with alpha-fetoprotein [1], with alpha-fetoprotein [3] and with alpha-fetoprotein [2] was “binds” in each case.

B3: chimeric Immu31 (antibody, V domains shown)
VH: QVQLQESGPELVKPGASVKMSCKASGYAFTSYVIHWVRQKPGQGLYWIGYIHPYNGGTKYNEKFKGKATLTSDKSSSTTYMELSSLTSEDSAVYYCARSGGGDPFAYWGQGTTVTVSS
VL: B2 VL with M105I
With B3, the binding result with alpha-fetoprotein [1], with alpha-fetoprotein [3] and with alpha-fetoprotein [2] was “binds” each time.
